From article PMC8510090, “The DNA Recognition Motif of GapR Has an Intrinsic DNA Binding Preference towards AT-rich DNA” (Molecules, 2021)
Changes are numbered by the printed parent chain. The comparison behind a weaker result is the experiment's own reference, which may not be listed here. Protein sequences can lack the tags named with them.

How the values were obtained:
[1] = molecular target: T1, GapRΔC17 (Caulobacter crescentus) (UniProt B8H4R9); assay: NMR titration (1H-15N HSQC); details: recombinant protein; residues 1-72; protein details: C-terminal His6
T1 sequence (looked up): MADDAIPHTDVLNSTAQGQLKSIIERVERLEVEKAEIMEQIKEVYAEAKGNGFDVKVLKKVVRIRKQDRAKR

[2] = molecular target: T2, GapRΔC17 R63A (Caulobacter crescentus) (UniProt B8H4R9); assay: MST; details: MST: 20 mM PBS, 150 mM NaCl, 0.02% n-dodecyl-β-D-maltoside, pH 7, 20 nM labeled dimer (labeling at room temperature); recombinant protein; residues 1-72; protein details: C-terminal His6
T2 sequence (looked up): T1 sequence (looked up) with R63A

[3] = molecular target: T3, GapRΔC17 K42A (Caulobacter crescentus) (UniProt B8H4R9); assay: MST; details: MST: 20 mM PBS, 150 mM NaCl, 0.02% n-dodecyl-β-D-maltoside, pH 7, 20 nM labeled dimer (labeling at room temperature); recombinant protein; residues 1-72; protein details: C-terminal His6
T3 sequence (looked up): T1 sequence (looked up) with K42A

[4] = molecular target: T4, GapRΔC17 K59A (Caulobacter crescentus) (UniProt B8H4R9); assay: MST; details: MST: 20 mM PBS, 150 mM NaCl, 0.02% n-dodecyl-β-D-maltoside, pH 7, 20 nM labeled dimer (labeling at room temperature); recombinant protein; residues 1-72; protein details: C-terminal His6
T4 sequence (looked up): T1 sequence (looked up) with K59A

[5] = molecular target: T5, GapRΔC17 K66A (Caulobacter crescentus) (UniProt B8H4R9); assay: MST; details: MST: 20 mM PBS, 150 mM NaCl, 0.02% n-dodecyl-β-D-maltoside, pH 7, 20 nM labeled dimer (labeling at room temperature); recombinant protein; residues 1-72; protein details: C-terminal His6
T5 sequence (looked up): T1 sequence (looked up) with K66A

[6] = molecular target: T6, GapRΔC17 K34A (Caulobacter crescentus) (UniProt B8H4R9); assay: MST; details: MST: 20 mM PBS, 150 mM NaCl, 0.02% n-dodecyl-β-D-maltoside, pH 7, 20 nM labeled dimer (labeling at room temperature); recombinant protein; residues 1-72; protein details: C-terminal His6
T6 sequence (looked up): T1 sequence (looked up) with K34A

[7] = molecular target: T7, GapRΔC17 K56A (Caulobacter crescentus) (UniProt B8H4R9); assay: MST; details: MST: 20 mM PBS, 150 mM NaCl, 0.02% n-dodecyl-β-D-maltoside, pH 7, 20 nM labeled dimer (labeling at room temperature); recombinant protein; residues 1-72; protein details: C-terminal His6
T7 sequence (looked up): T1 sequence (looked up) with K56A

[8] = molecular target: T8, GapRΔC17 K49A (Caulobacter crescentus) (UniProt B8H4R9); assay: MST; details: MST: 20 mM PBS, 150 mM NaCl, 0.02% n-dodecyl-β-D-maltoside, pH 7, 20 nM labeled dimer (labeling at room temperature); recombinant protein; residues 1-72; protein details: C-terminal His6
T8 sequence (looked up): T1 sequence (looked up) with K49A

Measured: binding result

CTACGCGCGTAG (double strand) [3CG DNA]
binds more weakly: [1]

CGCAAAAAAGCG (double strand) [6A DNA]
binds more weakly: [2] | [3] | [4] | [5] | [6] | [7] | [8]
